Construct, isoform or probe ends are uncertain for at least one entry. For part of these data: No signal at the amounts used counts as a negative.

This is an account of results in patent US6605431.

The test system of one series is RNA polymerase holoenzyme (sigma70) (Escherichia coli). Kind of series: SELEX. The note with it: in vivo more active than wild type; purified native protein.
With “GACGTCAGGAATTCCGCGGTCAGAAATTTATTTTAAAAAAGGGCTTGTCAGGCCGGAATAACTCCCTATAATGCGCCACC (double strand) [selected UP SEQ 60]”, the selection result is on record as “selected”.
Still for that read-out and setting: to “GACGTCAGGAATTCCGCGGTCTAAAAATATTTTTCGTTTACCCCTTGTCAGGCCGGAATAACTCCCTATAATGCGCCACC (double strand) [selected UP SEQ 54]” belongs “selected”.
On the same count and under the same terms, to “GACGTCAGGAATTCCGCGGTCTTAAATTTTTTTTCATAAACCCCTTGTCAGGCCGGAATAACTCCCTATAATGCGCCACC (double strand) [selected UP SEQ 50]” belongs “selected”.
On the same count and under the same terms, to “GACGTCAGGAATTCCGCGGTCTGAAAAATATTTTTGAAAACTACTTGTCAGGCCGGAATAACTCCCTATAATGCGCCACC (double strand) [selected UP SEQ 61]” belongs “selected”.
In the case of “GACGTCAGGAATTCCGCGGTCTCAAATTTTTTTTTGCAAACCCCTTGTCAGGCCGGAATAACTCCCTATAATGCGCCACC (double strand) [selected UP SEQ 51]”, the selection result is on record as “selected”.
Still for that read-out and setting: to “GACGTCAGGAATTCCGCGGTCGAAAATATATTTTTCAAAAGTACTTGTCAGGCCGGAATAACTCCCTATAATGCGCCACC (double strand) [selected UP SEQ 70]” belongs “selected”; to “GACGTCAGGAATTCCGCGGTCTAAAAATTTTTTTTGAAAAGGGCTTGTCAGGCCGGAATAACTCCCTATAATGCGCCACC (double strand) [selected UP SEQ 42]”, “selected”; to “GACGTCAGGAATTCCGCGGTCGCAAAATAATTGTAAAAAAGTACTTGTCAGGCCGGAATAACTCCCTATAATGCGCCACC (double strand) [selected UP SEQ 59]”, “selected”.
In the case of “GACGTCAGGAATTCCGCGGTCTAAATTTTTTTTTGCAAAAGTACTTGTCAGGCCGGAATAACTCCCTATAATGCGCCACC (double strand) [selected UP SEQ 47]”, the selection result is on record as “selected”.
Still for that read-out and setting: the value for “GACGTCAGGAATTCCGCGGTCAGAAATTTTTTTTCGAAAAACACTTGTCAGGCCGGAATAACTCCCTATAATGCGCCACC (double strand) [selected UP SEQ 41]” was “selected”.
As to “GACGTCAGGAATTCCGCGGTCAAAAATATTTTTTTGAAAAGTACTTGTCAGGCCGGAATAACTCCCTATAATGCGCCACC (double strand) [selected UP SEQ 53]”, the selection result is on record as “selected”.
On the same count and under the same terms, the value for “GACGTCAGGAATTCCGCGGTCGCAAAAATATTTCGTCAAACCCCTTGTCAGGCCGGAATAACTCCCTATAATGCGCCACC (double strand) [selected UP SEQ 67]” was “selected”.
With “GACGTCAGGAATTCCGCGGTCGAAAAATATTTTTGATAAAGTACTTGTCAGGCCGGAATAACTCCCTATAATGCGCCACC (double strand) [selected UP SEQ 68]”, the selection result is “selected”.
As to “GACGTCAGGAATTCCGCGGTCTAAACTTTTTTTTTCGAAAGTGCTTGTCAGGCCGGAATAACTCCCTATAATGCGCCACC (double strand) [selected UP SEQ 64]”, the selection result is on record as “selected”.
The same measure, in the same setting: to “GACGTCAGGAATTCCGCGGTCCAAATTTTTTTTTGCTAAACCCCTTGTCAGGCCGGAATAACTCCCTATAATGCGCCACC (double strand) [selected UP SEQ 52]” belongs “selected”.

Staying with this series, now noted: purified native protein.
In the case of “GACGTCAGGAATTCCGCGGTCCGAAAAAAAATTTACTAGGAATCTTGTCAGGCCGGAATAACTCCCTATAATGCGCCACC (double strand) [selected distal SEQ 14]”, the selection result was “selected”.
For “GACGTCAGGAATTCCGCGGTCGAAAAATATTTTTGCTAGGAATCTTGTCAGGCCGGAATAACTCCCTATAATGCGCCACC (double strand) [selected distal SEQ 10]”, the selection result is “selected”.
As for “GACGTCAGGAATTCCGCGGTCTAAGTTTTTTTTTACTAGGAATCTTGTCAGGCCGGAATAACTCCCTATAATGCGCCACC (double strand) [selected distal SEQ 12]”, the selection result is given as “selected”.
Same read-out and setting: to “GACGTCAGGAATTCCGCGGTCACGTATTTTTTTTACTAGGAATCTTGTCAGGCCGGAATAACTCCCTATAATGCGCCACC (double strand) [selected distal SEQ 9]” belongs “selected”; to “GACGTCAGGAATTCCGCGGTCATAAAATATTTTATCTAGGAATCTTGTCAGGCCGGAATAACTCCCTATAATGCGCCACC (double strand) [selected distal SEQ 22]”, “selected”.
With “GACGTCAGGAATTCCGCGGTCGATAAAAATAGTTGCTAGGAATCTTGTCAGGCCGGAATAACTCCCTATAATGCGCCACC (double strand) [selected distal SEQ 20]”, the selection result is listed as “selected”.
The same measure, in the same setting: the value for “GACGTCAGGAATTCCGCGGTCGAAAAAAATAGTTGCTAGGAATCTTGTCAGGCCGGAATAACTCCCTATAATGCGCCACC (double strand) [selected distal SEQ 17]” was “selected”.
Still for that read-out and setting: the value for “GACGTCAGGAATTCCGCGGTCTAAATTTTTTTTTTCTAGGAATCTTGTCAGGCCGGAATAACTCCCTATAATGCGCCACC (double strand) [selected distal SEQ 16]” was “selected”; that for “GACGTCAGGAATTCCGCGGTCGTAAAAATTTTTTACTAGGAATCTTGTCAGGCCGGAATAACTCCCTATAATGCGCCACC (double strand) [selected distal SEQ 8]” was “selected”.

For the next series, the system named is RNA polymerase holoenzyme alphaDelta235 (lacks alphaCTD) (Escherichia coli). Kind of series: activity assay. As to conditions: no UP stimulation; purified recombinant protein; protein details: reconstituted; label: 32P.
Take “GACGTCAGGAATTCCGCGGTCAGAAAATTATTTTAAATTTCCTCTTGTCAGGCCGGAATAACTCCCTATAATGCGCCACC (double strand) [rrnB P1 wild type UP element]”: the “activity on this sequence” value is “not active”.
Same read-out and setting: to “GACGTCAGGAATTCCGCGGTCGGAAAATTTTTTTTCTAGGAATCTTGTCAGGCCGGAATAACTCCCTATAATGCGCCACC (double strand) [rrnB P1 with 4513 distal subsite]” belongs “not active”; to “GACCTCAGGAATTCCGCGGTCGACTGCAGTGGTAAAAAAAGTACTTGTCAGGCCGGAATAACTCCCTATAATGCGCCACC (double strand) [rrnB P1 with 4547 proximal subsite]”, “not active”.
The same measure, in the same setting: to “GACGTCAGGAATTCCGCGGTCGGAAAATTTTTTTTCAAAAGTACTTGTCAGGCCGGAATAACTCCCTATAATGCGCCACC (double strand) [rrnB P1 with UP element 4192]” belongs “not active”.

For the next series, the system named is RNA polymerase (in-cell) (Escherichia coli). Kind of series: activity in cells. The note with it: lacZ fusion vs core promoter; protein in cells.
For the sequence “GACGTCAGGAATTCCGCGGTCGGAAAATTTTTTTTCAAAAGTACTTGTCAGGCCGGAATAACTCCCTATAATGCGCCACC (double strand) [rrnB P1 with UP element 4192]”, the activity on this sequence turned out to be 326 fold.

Still in this series, the particulars now being: lacZ fusion vs no UP; protein in cells.
As to “GACGTCAGGAATTCCGCGGTCAGAAAATTATTTTAAATTTCCTCTTGTCAGGCCGGAATAACTCCCTATAATGCGCCACC (double strand) [rrnB P1 wild type UP element]”, the activity on this sequence is 69 fold.

Still in this series, the particulars now being: lacZ fusion; protein in cells.
The sequence “GACGTCAGGAATTCCGCGGTCGGAAAATTTTTTTTCTAGGAATCTTGTCAGGCCGGAATAACTCCCTATAATGCGCCACC (double strand) [rrnB P1 with 4513 distal subsite]” came in with an activity on this sequence of 16 fold.
Same read-out and setting: to “GACGTCAGGAATTCCGCGGTCGGAAAATTTTTTTAAAAAAAGACTTGTCAGGCCGGAATAACTCCCTATAATGCGCCACC (double strand) [rrnB P1 with combined UP element 4541]” belongs 340 fold.

Staying with this series, now noted: lacZ fusion; protein in cells; variant of rrnB P1 wild type UP element.
“GACGTCAGGAATTCCGCGGTCAGAAAATTATTTTACTAGGAATCTTGTCAGGCCGGAATAACTCCCTATAATGCGCCACC (double strand) [rrnB P1 distal subsite only]” yielded an activity on this sequence of 9 fold.

The same series, now with this note: reference core promoter lacking UP element; protein in cells; variant of rrnB P1 wild type UP element.
Sequence “GACGTCAGGAATTCCGCGGTCGACTGCAGTGGTACCTAGGAATCTTGTCAGGCCGGAATAACTCCCTATAATGCGCCACC (double strand) [rrnB P1 core, no UP element]” displayed an activity on this sequence of 1 fold.

Still in this series, the particulars now being: vs lac core; protein in cells; only the site is given.
In turn, “AGAAAATTATTTTAAATTTCCT (double strand) [rrnB P1-lac hybrid promoter]” yielded an activity on this sequence of 39 fold.
As to “GGAAAATTTTTTTTCAAAAGTA (double strand) [4192-lac hybrid promoter]”, the activity on this sequence worked out at 108 fold.
